Experimental data taken from the supplement of paper PMC12282887.
Values are raw readings; no control value is given beside them.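 The top concentration was set near the MIC for antimicrobials, at 500 µM for most other compounds, and up to 1 mM for known inducer-like compounds. Deletion strains started from a tenfold smaller inoculum, and wells growing below 10% of the overall median were treated as non-growing.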

System: Escherichia coli BW25113
Test: growth (OD600 area under curve, 8 h) (OD600 x h); higher = more growth
Description: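 E. coli BW25113 reporter strains (wild type, ΔmarA, ΔsoxS, Δrob, each carrying one of 8 lux reporter plasmids) were grown in 40 µl LB in 384-well plates at 37°C, 800 rpm, with each compound at 4 two-fold concentrations, in biological duplicates. Growth is the baseline-corrected OD600 area under the curve over 8 h (0-8 h WT, 1-9 h deletion strains).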

CCCC(=O)O [Butyrate]
growth
Conditions | reporter plasmid: EVC | reporter plasmid: acrABp | reporter plasmid: marRABp | reporter plasmid: micFp | reporter plasmid: ompFp | reporter plasmid: robp | reporter plasmid: soxSp | reporter plasmid: tolCp
27.5 µg/ml, genetic background: wild type | 2.49 | 3.14 | 3.27 | 2.95 | 3.03 | 3.24 | 2.776 | 2.8
27.5 µg/ml, genetic background: ΔmarA | 3.04 | 3.78 | 3.43 | 2.9 | 3.54 | 3.64 | 2.51 | 2.62
27.5 µg/ml, genetic background: Δrob | 2.92 | 2.9 | 3.24 | 2.97 | 2.74 | 2.59 | 2.47 | 2.82
27.5 µg/ml, genetic background: ΔsoxS | 2.78 | 2.81 | 3.18 | 2.54 | 3 | 3 | 2.88 | 2.82
55 µg/ml, genetic background: wild type | 2.41 | 2.95 | 3.24 | 2.74 | 2.93 | 3.32 | 2.772 | 2.79
55 µg/ml, genetic background: ΔmarA | 2.75 | 3.73 | 3.41 | 3 | 3.25 | 3.43 | 2.19 | 2.623
55 µg/ml, genetic background: Δrob | 2.83 | 2.836 | 3.12 | 2.77 | 2.4 | 2.48 | 2.44 | 2.84
55 µg/ml, genetic background: ΔsoxS | 2.89 | 2.72 | 3.09 | 2.51 | 2.84 | 2.93 | 2.68 | 2.82
